Percent effect of library compounds

Amino acid sequences for entries named in this document (tags omitted). Residues count along the entry.
UniProt P9WNZ1, whole entry: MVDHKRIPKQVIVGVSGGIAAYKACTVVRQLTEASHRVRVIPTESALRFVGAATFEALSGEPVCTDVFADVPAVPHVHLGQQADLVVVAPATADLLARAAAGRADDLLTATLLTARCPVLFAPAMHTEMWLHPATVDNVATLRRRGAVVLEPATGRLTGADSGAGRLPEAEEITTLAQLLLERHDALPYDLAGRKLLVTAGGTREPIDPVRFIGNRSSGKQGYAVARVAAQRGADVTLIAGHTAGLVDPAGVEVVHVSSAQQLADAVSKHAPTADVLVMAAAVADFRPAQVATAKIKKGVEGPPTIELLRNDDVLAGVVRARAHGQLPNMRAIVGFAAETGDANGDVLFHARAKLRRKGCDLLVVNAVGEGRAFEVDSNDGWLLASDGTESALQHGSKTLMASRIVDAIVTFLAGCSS
UniProt A4I591, 1-473: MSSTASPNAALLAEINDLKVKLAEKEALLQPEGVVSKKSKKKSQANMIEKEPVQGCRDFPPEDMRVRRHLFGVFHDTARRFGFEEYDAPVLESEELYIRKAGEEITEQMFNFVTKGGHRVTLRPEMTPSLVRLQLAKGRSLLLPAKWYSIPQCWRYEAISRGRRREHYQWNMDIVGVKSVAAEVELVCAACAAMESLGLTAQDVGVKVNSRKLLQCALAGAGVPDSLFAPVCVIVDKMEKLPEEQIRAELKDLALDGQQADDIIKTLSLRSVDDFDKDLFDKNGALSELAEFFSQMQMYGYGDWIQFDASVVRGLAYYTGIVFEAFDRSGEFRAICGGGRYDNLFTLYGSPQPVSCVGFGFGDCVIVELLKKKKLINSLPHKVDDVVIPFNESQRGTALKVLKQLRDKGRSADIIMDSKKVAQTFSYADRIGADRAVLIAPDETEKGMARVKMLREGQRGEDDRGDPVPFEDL

The values are deposited in ChEMBL (CHEMBL3988442, “University of Dundee, Small-Polar-MMV Screening Library” (2021)).

CoaBC: 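Enzyme assay of CoaBC with a phosphate dye (Biomol Green) read at 650 nm. Target: Coenzyme A biosynthesis protein CoaBC, Mycobacterium tuberculosis (UniProt P9WNZ1). Compounds at 30 µM. Higher reads as stronger inhibition, judged from the few compounds that gave an IC50. Most strong results did not repeat in a second test. Of about 67,000 compounds tested this way, about 40 (0.06%) reached 50% or more in at least one test.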
LiHisRS: 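Enzyme assay of histidyl-tRNA synthetase; the read-out is not stated. Target: Histidine-tRNA ligase, Leishmania infantum (UniProt A4I591). Tested at 30 µM. The record gives no direction; compounds that gave an IC50 in retests scored well above the rest, so higher reads as stronger inhibition. The assay is labelled LdHisRS but filed under L. infantum. About 69,000 compounds were tested under these conditions; 0.6% (about 410) showed 50% or more at least once.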
Leishmania in macrophages: 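Cell assay of Leishmania donovani living inside macrophages; the read-out is not stated. Concentration: 30 µM. Direction is inferred from retests: higher values go with stronger inhibition. Of about 69,000 compounds tested this way, about 1,000 (1.5%) reached 50% or more in at least one test.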

The filed quantity is “Percent Effect” (%). The controls that fix the scale are not given in the record; negative values are as filed. The compounds are a random part of those screened.

Result for O=c1cc2c(nn1CN1CCN(c3ccccc3)CC1)CCC2 was CoaBC: 6.057%; LiHisRS: 13.59%; Leishmania in macrophages: 13.16%. Result for COC(C)c1nc(CN2CCNCC2)cs1 (stereo not drawn) was CoaBC: 1.222%; LiHisRS: 3.226%; Leishmania in macrophages: 20.86%. With CCOC(=O)N1CCN(C(=O)c2sc(-c3ccccc3)nc2C)CC1 the screen gave CoaBC: 6.112%; LiHisRS: 9.677%; Leishmania in macrophages: -97.65%. With COc1c(CNC2CCc3c(F)cccc32)c(C)nn1C (stereo not drawn) the screen gave CoaBC: -8.043%; LiHisRS: 15.38%.

CCC(C)N(C)CCNC(=O)c1ccccc1OCCOC (stereo not drawn) gave CoaBC: 6.087%; LiHisRS: 7.018%; Leishmania in macrophages: 3.778%. With CCNc1ncnc2c1CN(C1CCCNCC1)C(=O)CN2C (stereo not drawn) the screen gave CoaBC: 2.105%; LiHisRS: 8.276%; Leishmania in macrophages: 9.224%. CCC(O)CN1CCN(C(=O)c2ccnc(N(C)C)c2)CC1 (stereo not drawn) gave CoaBC: 7.463%; LiHisRS: 19.23%; Leishmania in macrophages: 10.41%. CC(=O)c1cc2ncc(C(=O)NC3CCCCC3)cc2[nH]1 read CoaBC: 2.184%; LiHisRS: 23.76%; Leishmania in macrophages: 5.424%.

Result for CN1C(=O)C2(CCN(C(=O)c3ccccc3)CC2)c2cc(F)ccc21 was CoaBC: 0.2463%; LiHisRS: 14%. O=C(NCCNc1ncccn1)C1CCN(C(=O)N2CCCC2)CC1 read CoaBC: 14.91%; LiHisRS: 5.357%; Leishmania in macrophages: 16.78%. With O=C(CCN1CCCC1c1cccc2c1OCCO2)N1CCCCC1 (stereo not drawn) the screen gave CoaBC: -7.851%; LiHisRS: 16.96%; Leishmania in macrophages: 3.223%. Cc1ccc(S(=O)(=O)Nc2cnn(C3CCOCC3)c2)cc1C gave CoaBC: -0.6017%; LiHisRS: 15.73%; Leishmania in macrophages: 15.27%.

For CN1CCN(C(=O)c2n[nH]c3c2CCN(Cc2nccs2)C3)CC1 the result was CoaBC: 12.62%; LiHisRS: 19.74%; Leishmania in macrophages: 5.113%. CC(C)Cc1cc(C(=O)N2CCC(Cc3cnn(C)c3)C2)cc(O)n1 (stereo not drawn) gave CoaBC: 1.351%; LiHisRS: 4.651%; Leishmania in macrophages: -5.22%. N#Cc1cccnc1N1CCC(OCc2ccccc2)CC1 gave CoaBC: 1.332%; LiHisRS: 5.435%; Leishmania in macrophages: -11.51%. COc1cccc(OCc2cc(C(=O)NC[C@@H]3CCCN3)n[nH]2)c1 gave CoaBC: -22.68%; LiHisRS: 12.12%; Leishmania in macrophages: 16.55%.

With O=C(NCCN1CCCC1)c1nc2c(o1)CN(C(=O)c1cccnc1)C2.O=C(O)C(F)(F)F.O=C(O)C(F)(F)F the screen gave Leishmania in macrophages: 16.37%. Result for Cc1ccc(C(O)CNC(=O)NCc2c(C)cc(C)[nH]c2=O)cc1 (stereo not drawn) was CoaBC: 1.695%; LiHisRS: 9.649%; Leishmania in macrophages: -5.184%.

The first 2 entries again:

SMILES	CoaBC	LiHisRS	Leishmania in macrophages
O=c1cc2c(nn1CN1CCN(c3ccccc3)CC1)CCC2	6.057%	13.59%	13.16%
COC(C)c1nc(CN2CCNCC2)cs1 (stereo not drawn)	1.222%	3.226%	20.86%